About 6,100 (1.1%) of roughly 580,000 compounds were called active. Inconclusive results, whose numbers are uncertain, are shown with a selection of clear calls. The call rests on the fitted dose curve; in most records, active means well fitted inhibition curve with a large enough effect; inconclusive means small, poorly fitted or top-dose-only effect, or another doubt; inactive means no such curve, though single readings can be large or run the other way. Potencies beside an inconclusive call are fits to weak or partial responses and may not hold up.
Target: Polyunsaturated fatty acid lipoxygenase ALOX12 (Homo sapiens) (UniProt P18054)
Assay: Primary qHTS assay for inhibitors of human arachidonate 12S-lipoxygenase (ALOX12): Round 2
Conditions: purified 12hLO, xylenol orange hydroperoxide absorbance; activity change, negative = inhibition: at 108 µM (top of the series) unless noted
In short: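 Hydroperoxide product was detected by ferrous iron/xylenol orange as the 573 to 405 nm absorbance ratio. Arachidonic acid at 40 uM (final) was turned over for 30 min at room temperature by 150 nM human 12hLO, pH 7.0 Hepes buffer, after 15 min compound preincubation.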
On the % scale 0 is the no-effect control and ±100 the full control effect; potency means the concentration at half of the fitted maximal effect.

Sequences of proteins named here, by UniProt entry; tags and fusion partners are left off. A change or cut given only in a name is not applied to a line headed by its entry.
UniProt P18054: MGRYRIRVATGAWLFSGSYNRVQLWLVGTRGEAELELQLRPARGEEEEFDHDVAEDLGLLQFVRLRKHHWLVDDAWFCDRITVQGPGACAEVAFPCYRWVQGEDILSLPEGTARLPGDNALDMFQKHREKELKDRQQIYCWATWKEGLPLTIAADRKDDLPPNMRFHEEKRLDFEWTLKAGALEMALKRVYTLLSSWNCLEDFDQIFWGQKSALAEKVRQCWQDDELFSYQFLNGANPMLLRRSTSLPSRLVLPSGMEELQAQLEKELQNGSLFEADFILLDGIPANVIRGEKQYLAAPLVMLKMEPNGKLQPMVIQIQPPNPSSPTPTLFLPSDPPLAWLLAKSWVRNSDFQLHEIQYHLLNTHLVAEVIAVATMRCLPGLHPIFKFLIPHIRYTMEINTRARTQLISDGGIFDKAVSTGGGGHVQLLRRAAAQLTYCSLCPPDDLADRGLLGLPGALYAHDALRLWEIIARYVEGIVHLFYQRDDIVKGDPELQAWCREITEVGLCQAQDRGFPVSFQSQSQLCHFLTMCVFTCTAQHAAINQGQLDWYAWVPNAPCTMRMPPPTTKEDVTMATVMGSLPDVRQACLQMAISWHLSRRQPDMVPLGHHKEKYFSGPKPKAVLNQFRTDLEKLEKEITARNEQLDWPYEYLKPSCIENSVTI

| Structure (SMILES) | Potency | activity change, negative = inhibition |
| --- | --- | --- |
| S=C(Nc1nc2c(s1)CCCC2)NC1CC1 | active: 44.7 µM | – |
| CCN(CC)C(=O)Cn1c(=O)n(CCCCCC(=O)NCc2ccc3c(c2)OCO3)c(=O)c2sccc21 | inconclusive: 100 µM [inhibitor, single point] | – |
| CCCN=C1N(CC)C[C@@H]2[C@@H]3C(=O)N(C)C(=O)[C@@H]3[C@](C)(C(=O)OC)N12 | inconclusive: 31.6 µM [inhibitor, single point] | – |
| O=C(NC(Nc1ccccc1F)C(=O)c1ccccc1)c1ccc(Cl)cc1 (stereo not drawn) | – | inactive: -30.5% |
| Oc1ccc(C=Nc2cccc3ccccc23)cc1 | inconclusive: 35.5 µM [inhibitor, single point] | – |
| CC(C)(C)c1cc(CSc2nc3ccccc3s2)cc(C(C)(C)C)c1O | – | inactive: -0.335% |
| Cc1ccc(CNC(=O)c2ccc(N3CCCC3)c(NC(=O)Nc3ccc(C)cc3)c2)cc1 | – | inactive: 1.85% |
| Cc1ccc(CNC(=O)C(=O)Nc2c3c(nn2-c2ccc(F)cc2)CSC3)cc1 | – | inactive: -1.35% |
| COC(=O)[C@@H]1Cc2c([nH]c3ccccc23)[C@H]2C[C@@H](NCCNC(C)=O)C[C@@H](c3ccc(C(C)C)cc3)N21 | inconclusive: 28.2 µM [inhibitor, partial curve] | – |
| CCOC(=O)N1CCN(C(=O)c2ccc(Cl)c(S(=O)(=O)N3CCOCC3)c2)CC1 | – | inactive: -4.93% |
| COc1ccccc1CNc1nc(NCc2ccccc2OC)n(S(=O)(=O)c2ccccc2)n1 | inconclusive: 31.6 µM [inhibitor, partial curve, poor fit] | – |
| C/C(=N\NC(N)=S)c1ccc2c3c(cccc13)CC2 | inconclusive: 50.1 µM [inhibitor, partial curve, poor fit] | – |
| O=C(N/N=C/c1cn(-c2ccccc2)nc1-c1cccnc1)c1cccnc1 | – | inactive: 4.16% |
| CCCc1cc(=O)oc2c3c(ccc12)OCN(Cc1ccccc1OC)C3 | – | inactive: -30.3% |
| Cc1ccc(S(=O)(=O)Cc2ccc(C(=O)NCCc3ccccc3)o2)cc1 | inconclusive: 35.5 µM [inhibitor, partial curve, poor fit] | – |
| Cc1cc(C)c2c(N)c(C(=O)N3CCc4ccccc4C3)sc2n1 | – | inactive: 0.521% |
| Cc1ccc(C2C3=C(CC(C)(C)CC3=O)N=C3c4ccccc4C(=O)C32)cc1 (stereo not drawn) | inconclusive: 56.2 µM [inhibitor, partial curve, poor fit] | – |
| Cc1cc(OCC(O)CNC(C)c2ccccc2)ccc1C(C)C (stereo not drawn) | inconclusive: 79.4 µM [inhibitor, single point] | – |
| COc1cccc2sc(N3CCN(C(=O)CCS(=O)(=O)c4ccc(C)cc4)CC3)nc12 | inconclusive: 89.1 µM [inhibitor, partial curve, poor fit] | – |
| COc1cc(-c2cc(C(=O)O)c3cc4ccccc4cc3n2)cc(OC)c1OC | inconclusive: 56.2 µM [inhibitor, partial curve, poor fit] | – |
| CCCCC(c1nnnn1CCOC)N1CCN(CC)CC1 (stereo not drawn) | inconclusive: 44.7 µM [inhibitor, partial curve, poor fit] | – |
| CCC1(c2ccccc2)NC(=O)N(CC(=O)N(C)CC(=O)Nc2ccc(F)c(F)c2F)C1=O (stereo not drawn) | inconclusive: 112 µM [inhibitor, partial curve, poor fit] | – |

| Structure (SMILES) | Potency | activity change, negative = inhibition |
| --- | --- | --- |
| C=CC#CC[N+](C)(C)CC#Cc1cccc2ccccc12 | inconclusive: 15.8 µM [inhibitor, full curve, poor fit] | – |
| CCOc1ccc(S(=O)(=O)n2c([N+](=O)[O-])cnc2C)c(C)c1C | inconclusive: 35.5 µM [inhibitor, partial curve, poor fit] | – |
| Nc1c(C(=O)NCc2ccccc2)c2nc3ccccc3nc2n1CCCN1CCOCC1 | – | inactive: -25.8% |
| Cc1cccc(OCC(=O)c2ccc3c(c2)N(C(C)C(=O)N2CCCC2)C(=O)CO3)c1C (stereo not drawn) | – | inactive: 30.7% |
| CC(=O)C1=C(O)C(=O)N(c2ccc(Br)cc2)C1c1ccc([N+](=O)[O-])cc1 (stereo not drawn) | active: 31.6 µM | – |
| NC(=O)C1CCN(C(=O)Cn2ccc3c(Br)cccc32)CC1 | inconclusive: 39.8 µM [inhibitor, partial curve, poor fit] | – |
| C=CCc1c(C)[nH]c(=S)c(C#N)c1C | inconclusive: 4.47 µM [inhibitor, full curve, poor fit] | – |
| CCOc1ccc(NC(=O)CC2C(=O)N(CC)C(=S)N2CCNC(C)=O)cc1 (stereo not drawn) | – | inactive: -24.8% |
| O=C(CC(c1ccccc1)c1ccc2c(c1)OCO2)N1CCCCCC1 (stereo not drawn) | – | inactive: 18.3% |
| CC(C)Sc1nc2c(c(=O)n(C)c(=O)n2C)n1Cc1cccc2ccccc12 | inconclusive: 2.24 µM [inhibitor, full curve, poor fit] | – |
| COc1cccc(CNCc2ccc(OC)cc2OC)c1 | inconclusive: 3.16 µM [inhibitor, full curve, poor fit] | – |
| CCN(CC)CCCOC(=O)c1ccc(O)cc1O | inconclusive: 126 µM [inhibitor, single point] | – |
| Cc1ccsc1C(=O)N1CCC1(C)C(=O)NS(=O)(=O)c1ccccc1 (stereo not drawn) | inconclusive: 50.1 µM [inhibitor, partial curve, poor fit] | – |
| C/C(=N\NC(N)=S)C12CC3CC(CC(C3)C1)C2 | inconclusive: 35.5 µM [inhibitor, partial curve] | – |
| CCCCCc1ccc(-c2ccc(C#N)cc2)nc1 | inconclusive: 89.1 µM [inhibitor, partial curve, poor fit] | – |
| O=[N+]([O-])c1nn(-c2ccccc2)n(O)c1=NC1CCN(Cc2ccccc2)CC1 | – | inactive: -6.42% |
| Cc1n[nH]c(C)c1CCC(=O)N/N=C/c1c[nH]c2ccccc12 | inconclusive: 56.2 µM [inhibitor, single point] | – |
| Cc1ccc(NC(=O)C2CCCN2C(=O)c2cccs2)c(C)c1 (stereo not drawn) | inconclusive: 50.1 µM [inhibitor, partial curve, poor fit] | – |
| CC(=O)Nc1ccc(C(=O)CSc2nnnn2C)cc1 | – | inactive: 5.22% |
| CCCCCOc1ccc(C(=O)C(CCC(CNC(C)(C)C)C(=O)c2ccc(OCCCCC)cc2)CNC(C)(C)C)cc1 (stereo not drawn) | inconclusive: 35.5 µM [inhibitor, partial curve, poor fit] | – |
| OC(CNC1CCCCCC1)COc1cccc2ccccc12 (stereo not drawn) | inconclusive: 2.51 µM [inhibitor, full curve, poor fit] | – |

Quoted at random: 3 entries already listed.

| Structure (SMILES) | Potency | activity change, negative = inhibition |
| --- | --- | --- |
| Cc1n[nH]c(C)c1CCC(=O)N/N=C/c1c[nH]c2ccccc12 | inconclusive: 56.2 µM [inhibitor, single point] | – |
| CC(=O)Nc1ccc(C(=O)CSc2nnnn2C)cc1 | – | inactive: 5.22% |
| Cc1ccc(NC(=O)C2CCCN2C(=O)c2cccs2)c(C)c1 (stereo not drawn) | inconclusive: 50.1 µM [inhibitor, partial curve, poor fit] | – |
